Experimental data reported in PubChem BioAssay AID493014 (National Center for Advancing Translational Sciences (NCATS), 2011).
The whole screen tested about 340,000 compounds, of which about 170 (0.05%) were called active. Inconclusive means that the source gave no clear call. Such entries were picked first, then a sample of the others. Calls follow the shape of the dose curve; as a rule, active = well fitted inhibition curve with a large enough effect in the signal ratio, with a control signal flat (not every such curve was filed as active); inconclusive = small, poorly fitted or top-dose-only effect, or effect the other way, or a change in a side signal; inactive = flat fitted curve, though single readings scatter; the % refers to the signal ratio. Potencies of inconclusive entries are doubtful fits and often do not repeat.

Experiment: qHTS Assay to Find Inhibitors of Chronic Active B-Cell Receptor Signaling;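 as to activity change, negative = inhibition: plate controls were basal doxycycline-induced cells for no effect and cells given 10 µM MG132 for full effect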
Conditions: ABC-DLBCL IkBa-CBG/CBR reporter, luminescence ratio (green luciferase fused to IkBa over red control in TMD8 lymphoma cells), 4 h; activity change, negative = inhibition: at 46.1 µM (top of the series) unless noted
Procedure, shortened: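 Doxycycline induced both beetle luciferases in TMD8 lymphoma cells; IKK-driven degradation limits the IkappaBalpha-fused green signal, while red luminescence normalises for cell number and nonspecific effects. Compounds tested up to 46 uM, 4 hrs.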
Potency is read from the fitted curve at half-maximal effect.

Compound	Potency	activity change, negative = inhibition
COc1ccc(-c2cc(-c3ccc(Cl)cc3)n[nH]2)c(O)c1	inconclusive: 31.6 µM [rising, single point]	
Cc1ccc(S(=O)(=O)Nc2ccc(-c3ccc4nncn4n3)cc2)cc1		inconclusive: 1.46%
Cc1ccc(O)c(-c2cc3ccccc3[nH]2)c1		inconclusive: 16.9%
CCOc1ccccc1N1CCN(C(=O)c2cc(-c3cccnc3)nc3c(Cl)cccc23)CC1		inconclusive: -1.06%
COc1ccc(NC(=S)N2CCC(c3ccccc3)C2)cc1 (stereo not drawn)		inactive: -4.52%
COc1ccc(NC(=O)c2c(Nc3ccccc3)sc(C(=O)c3ccc(F)cc3)c2N)cc1		inconclusive: -26.9%
COc1ccccc1-n1cc(C(=O)c2cc(Cl)ccc2O)cc(C#N)c1=O	inconclusive: 35.5 µM [falling, single point]	
Cc1ccc(S(=O)(=O)CCC(=O)OCC(=O)NC(=O)c2ccccc2)cc1		inactive: 0.0564%
COC(=O)Cn1nnc(-c2cccc(OC)c2)n1		inconclusive: 1.71%
Cc1nn2c3ccccc3n(CC(=O)c3cccs3)c2nc1=O	inconclusive: 35.5 µM [falling, single point]	
Cc1nc(NCc2ccccc2)c2cc[nH]c2n1		inconclusive: -7.31%
CC(/C=C/c1ccccc1)=N\Nc1nc(C)cc(C)n1		inconclusive: 2.07%
COc1ccc([C@]23Cc4cc(OC)c(OC)cc4C(O2)c2c(c4ccccc4oc2=O)O3)cc1	inconclusive: 1.58 µM [falling, partial curve]	
Cc1ccc2c(c1)NC(=O)c1cccnc1N2		inconclusive: -15.9%
Cc1ccc(NC(=S)C2=C(O)c3ccccc3N(C)S2(=O)=O)cc1	inconclusive: 18.4 µM [falling, single point]	
COc1ccc(OCC(=O)Nc2ccc(C)c(S(=O)(=O)N(C)C)c2)cc1		inconclusive: 1.92%
COc1ccc(/C=C/C(=O)c2ccc[nH]2)cc1OC	inconclusive: 29.1 µM [falling, single point]	
Cc1cc(-c2ccc(S(=O)(=O)Nc3ccc(Cl)cc3)cc2)on1		inconclusive: 4.94%
Cc1[nH]c2ccc(-c3nnc(SCC(=O)c4ccccc4F)o3)cc2c1C		inconclusive: 13.3%
CCc1nnc(NC(=O)CSc2nc3cccnc3n2C2CCCCC2)s1		inconclusive: -10.8%
CSc1ncccc1C(=O)Nc1cccc(S(=O)(=O)N2CCCCC2)c1		inactive: -3.31%
O=C(c1sccc1-n1cccc1)N1CCCC1		inconclusive: -8.51%
Cc1cc(C)cc(NC(=S)NCC2CCN(C(C)c3ccccc3)C2)c1 (stereo not drawn)		inconclusive: -18.9%
COc1ccc(C(c2sc3nc(C)nn3c2O)N2CCC3(CC2)OCCO3)cc1 (stereo not drawn)		inconclusive: 3.24%
O=C(CCC(=O)N(CC(=O)NC1CCCCC1)c1ccc(F)cc1)Nc1ccccn1	inconclusive: 11.2 µM [falling, partial curve]	
COc1ccc(N(C=O)C(=S)SC)cc1		inconclusive: 1.79%
CC(=O)c1cccc(NC(=O)C2CCCN(S(=O)(=O)c3cccc4cccnc34)C2)c1 (stereo not drawn)	inconclusive: 18.4 µM [falling, single point]	

Filtered by structure, the entries above with a carbonyl joined to an NH by a bond outside any ring.
Compound	Potency	activity change, negative = inhibition
COc1ccc(NC(=O)c2c(Nc3ccccc3)sc(C(=O)c3ccc(F)cc3)c2N)cc1		inconclusive: -26.9%
Cc1ccc(S(=O)(=O)CCC(=O)OCC(=O)NC(=O)c2ccccc2)cc1		inactive: 0.0564%
COc1ccc(OCC(=O)Nc2ccc(C)c(S(=O)(=O)N(C)C)c2)cc1		inconclusive: 1.92%
CCc1nnc(NC(=O)CSc2nc3cccnc3n2C2CCCCC2)s1		inconclusive: -10.8%
CSc1ncccc1C(=O)Nc1cccc(S(=O)(=O)N2CCCCC2)c1		inactive: -3.31%
O=C(CCC(=O)N(CC(=O)NC1CCCCC1)c1ccc(F)cc1)Nc1ccccn1	inconclusive: 11.2 µM [falling, partial curve]	
CC(=O)c1cccc(NC(=O)C2CCCN(S(=O)(=O)c3cccc4cccnc34)C2)c1 (stereo not drawn)	inconclusive: 18.4 µM [falling, single point]	

Following part.

Compound	Potency	activity change, negative = inhibition
CS(=O)(=O)Nc1ccc(C2=NN(S(C)(=O)=O)C(c3ccc4c(c3)OCO4)C2)cc1 (stereo not drawn)	inconclusive: 2.06 µM [falling, partial curve, poor fit]	
CC(=O)N(c1ccccc1)c1c(F)c(F)c(F)c(F)c1F		inconclusive: 3.57%
CC(=O)c1ccc(S(=O)(=O)N(CC(=O)NC2CC2)Cc2ccc(F)cc2)cc1		inactive: 6.53%
O=C(CSc1cccc2cccnc12)N/N=C/c1ccc(F)cc1		inactive: -0.623%
CCOC(=O)Cc1nnc(Nc2ccc(C)cc2)c2ccccc12	inconclusive: 20.6 µM [falling, single point]	
CC(=O)Oc1cccc(N2C(=O)C3C4C=CC(CC4)C3C2=O)c1 (stereo not drawn)		inconclusive: 4.46%
Cn1cc(C(=O)O)c(-c2ccc3c(c2)OCCCO3)n1		inconclusive: 1.09%
Cc1cc2ncc(S(=O)(=O)c3ccccc3)c(N)n2n1	inconclusive: 11.2 µM [falling, partial curve, poor fit]	
O=C(COc1ccc2ccccc2c1)Nc1ccc(Br)cc1C(=O)O		inconclusive: -16.5%
O=C(NCCCCNC(=O)c1cccnc1Cl)c1cccnc1Cl		inconclusive: 7.54%
O=C1CNC(=O)N1c1ccc(Cl)cc1		inconclusive: 3.54%
O=C(CC1C(=O)NCCN1Cc1ccc(F)cc1Cl)NC1CCCCCCC1 (stereo not drawn)		inconclusive: -0.481%
Cc1ccc(C(=O)Nc2ccc3c4c(cccc24)CC3)cc1[N+](=O)[O-]		inconclusive: 7.2%
COc1ccc(NC(=O)Nc2cnccn2)cc1		inconclusive: 6.73%
CCCCCCOc1ccc(C(=O)O)cc1C#N		inactive: 6.99%
COc1ccc(C(=O)Nc2cccc(OC)c2)cc1	inconclusive: 11.2 µM [falling, partial curve]	
C[C@@]12C(=O)Nc3cc(Cl)ccc3C(=O)N1[C@H]1c3cc(Br)ccc3OC[C@@H]1[C@@H]2c1ccccc1		inconclusive: 0.257%
NC(=O)c1ccccc1NC(=O)c1ccccc1Cl		inconclusive: 8.17%
COc1ccc(S(=O)(=O)NCC2CCCN(CC(C)(C)C)C2)cc1 (stereo not drawn)	inconclusive: 4.47 µM [falling, single point]	
O=c1cc(O)c2ccc(O)cc2o1		inactive: -17.3%
O=C(CSc1ccc2ccccc2n1)N1CCC(c2noc3ccc(F)cc23)CC1		inactive: 2.91%
O=[N+]([O-])c1ccc2c(c1)C(O)n1nc(-c3ccc(Cl)cc3Cl)nc1S2 (stereo not drawn)	inconclusive: 1.46 µM [rising, full curve]	
O=C(/C=C/c1ccc(Cl)cc1)NCCc1ccccc1	inconclusive: 1.58 µM [rising, partial curve, poor fit]	
Cn1c(C(=O)N2CCCC(C(=O)O)C2)cc2sccc21 (stereo not drawn)		inactive: -0.0713%
O=S(=O)(NC1CCCCC1Oc1ccccc1)c1ccc(Cl)cc1 (stereo not drawn)		inconclusive: 2.68%
COc1ccc(C2CC(=O)Oc3cc(OC)c(OC)c(OC)c32)cc1 (stereo not drawn)		inconclusive: -5.82%

Entries of single compounds, looked up by structure.
Cc1cc2ncc(S(=O)(=O)c3ccccc3)c(N)n2n1 as listed: Potency: inconclusive: 11.2 µM [falling, partial curve, poor fit]
CC(=O)N(c1ccccc1)c1c(F)c(F)c(F)c(F)c1F as listed: activity change, negative = inhibition: inconclusive: 3.57%
